PubChem BioAssay AID1224828 – NIAID | 2016

Test: 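Knock-downs that increase or decrease LPS-induced p65 nuclear translocation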 (primary screen)
Cell system: mouse RAW264.7 G9 macrophage reporter cells (GFP-p65, Tnf promoter-mCherry)
Reagents: siRNA pool against mouse genes, 100 nM
Time to read-out: 2 days siRNA transfection, then 40 min LPS before fixation
Treatment: LPS (Salmonella minnesota R595) at 10 ng/ml
Measurement: 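Imaged p65 nuclear translocation ratio, normalised to the plate median, converted to robust z-scores and averaged across two replicates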
Direction: p65 translocation robust z-score: higher = more nuclear NF-kappaB p65 after LPS than the plate median; nuclear/cytoplasmic p65 ratio: higher = more nuclear NF-kappaB p65
Active means: 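Called active when z exceeds 3.3 or falls under -1.56 (median of Tlr4 controls), giving activity score of at least 50; no calls for control wells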
Calls: active = hit (p65 shift raised or lowered); inactive = no clear change
Here is a random part of about 17,000 reagents tested. Of all reagents, 762 (4.5%) were called active. 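Active calls include both raised and lowered p65 entry, mostly lowered; wells with fewer than 50 cells lack a z-score.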 Raw values are not corrected between plates. Reagent sequences are not shown.

Acot1 (GeneID 26897)
- p65 translocation robust z-score: -0.72
- nuclear/cytoplasmic p65 ratio, rep 1: 1.46
- nuclear/cytoplasmic p65 ratio, rep 2: 1.68
- low cell count flag: enough cells to score
- activity call: inactive

Cdhr4 (GeneID 69398)
- p65 translocation robust z-score: 0.92
- nuclear/cytoplasmic p65 ratio, rep 1: 1.74
- nuclear/cytoplasmic p65 ratio, rep 2: 1.64
- low cell count flag: enough cells to score
- activity call: inactive

Neu1 (GeneID 18010)
- p65 translocation robust z-score: -0.21
- nuclear/cytoplasmic p65 ratio, rep 1: 1.41
- nuclear/cytoplasmic p65 ratio, rep 2: 1.32
- low cell count flag: enough cells to score
- activity call: inactive

Tmem131 (GeneID 56030)
- p65 translocation robust z-score: 0.79
- nuclear/cytoplasmic p65 ratio, rep 1: 1.71
- nuclear/cytoplasmic p65 ratio, rep 2: 1.63
- low cell count flag: enough cells to score
- activity call: inactive

Prkcsh (GeneID 19089)
- p65 translocation robust z-score: -0.22
- nuclear/cytoplasmic p65 ratio, rep 1: 1.63
- nuclear/cytoplasmic p65 ratio, rep 2: 1.37
- low cell count flag: enough cells to score
- activity call: inactive

Rnf8 (GeneID 58230)
- p65 translocation robust z-score: -0.77
- nuclear/cytoplasmic p65 ratio, rep 1: 1.26
- nuclear/cytoplasmic p65 ratio, rep 2: 1.55
- low cell count flag: enough cells to score
- activity call: inactive

Nrg1 (GeneID 211323)
- p65 translocation robust z-score: -1.2
- nuclear/cytoplasmic p65 ratio, rep 1: 1.53
- nuclear/cytoplasmic p65 ratio, rep 2: 1.49
- low cell count flag: enough cells to score
- activity call: inactive

Bphl (GeneID 68021)
- p65 translocation robust z-score: 0.39
- nuclear/cytoplasmic p65 ratio, rep 1: 1.73
- nuclear/cytoplasmic p65 ratio, rep 2: 1.62
- low cell count flag: enough cells to score
- activity call: inactive

Siglecf (GeneID 233186)
- p65 translocation robust z-score: -0.25
- nuclear/cytoplasmic p65 ratio, rep 1: 1.36
- nuclear/cytoplasmic p65 ratio, rep 2: 1.24
- low cell count flag: enough cells to score
- activity call: inactive

Or5w1b (GeneID 258348)
- p65 translocation robust z-score: -1.05
- nuclear/cytoplasmic p65 ratio, rep 1: 1.6
- nuclear/cytoplasmic p65 ratio, rep 2: 1.33
- low cell count flag: enough cells to score
- activity call: inactive

Kmo (GeneID 98256)
- p65 translocation robust z-score: 0.42
- nuclear/cytoplasmic p65 ratio, rep 1: 1.8
- nuclear/cytoplasmic p65 ratio, rep 2: 1.32
- low cell count flag: enough cells to score
- activity call: inactive

Nemp1 (GeneID 210035)
- p65 translocation robust z-score: -0.34
- nuclear/cytoplasmic p65 ratio, rep 1: 1.44
- nuclear/cytoplasmic p65 ratio, rep 2: 1.79
- low cell count flag: enough cells to score
- activity call: inactive

Nudt16l1 (GeneID 66911)
- p65 translocation robust z-score: -0.77
- nuclear/cytoplasmic p65 ratio, rep 1: 1.38
- nuclear/cytoplasmic p65 ratio, rep 2: 1.4
- low cell count flag: enough cells to score
- activity call: inactive

Mtcl3 (GeneID 67412)
- p65 translocation robust z-score: -0.8
- nuclear/cytoplasmic p65 ratio, rep 1: 1.18
- nuclear/cytoplasmic p65 ratio, rep 2: 1.43
- low cell count flag: enough cells to score
- activity call: inactive

Rb1cc1 (GeneID 12421)
- p65 translocation robust z-score: 0.41
- nuclear/cytoplasmic p65 ratio, rep 1: 1.54
- nuclear/cytoplasmic p65 ratio, rep 2: 1.61
- low cell count flag: enough cells to score
- activity call: inactive

Sprr1b (GeneID 20754)
- p65 translocation robust z-score: -1.22
- nuclear/cytoplasmic p65 ratio, rep 1: 1.26
- nuclear/cytoplasmic p65 ratio, rep 2: 1.13
- low cell count flag: enough cells to score
- activity call: inactive

Gas2 (GeneID 14453)
- p65 translocation robust z-score: 0.71
- nuclear/cytoplasmic p65 ratio, rep 1: 1.52
- nuclear/cytoplasmic p65 ratio, rep 2: 1.47
- low cell count flag: enough cells to score
- activity call: inactive

Lrrc57 (GeneID 66606)
- p65 translocation robust z-score: 0.53
- nuclear/cytoplasmic p65 ratio, rep 1: 1.52
- nuclear/cytoplasmic p65 ratio, rep 2: 1.49
- low cell count flag: enough cells to score
- activity call: inactive

Or8b4 (GeneID 258794)
- p65 translocation robust z-score: -0.26
- nuclear/cytoplasmic p65 ratio, rep 1: 1.38
- nuclear/cytoplasmic p65 ratio, rep 2: 1.26
- low cell count flag: enough cells to score
- activity call: inactive

Jkamp (GeneID 104771)
- nuclear/cytoplasmic p65 ratio, rep 1: 1.3
- nuclear/cytoplasmic p65 ratio, rep 2: 1.32
- low cell count flag: fewer than 50 cells per well; well left out of scoring
- activity call: inactive

Selenbp2 (GeneID 20342)
- p65 translocation robust z-score: 1.04
- nuclear/cytoplasmic p65 ratio, rep 1: 1.64
- nuclear/cytoplasmic p65 ratio, rep 2: 1.76
- low cell count flag: enough cells to score
- activity call: inactive

Sorted by “nuclear/cytoplasmic p65 ratio, rep 1” (highest first): some entries from above.
Nudt16l1 (GeneID 66911)
- p65 translocation robust z-score: -0.77
- nuclear/cytoplasmic p65 ratio, rep 1: 1.38
- nuclear/cytoplasmic p65 ratio, rep 2: 1.4
- low cell count flag: enough cells to score
- activity call: inactive

Mtcl3 (GeneID 67412)
- p65 translocation robust z-score: -0.8
- nuclear/cytoplasmic p65 ratio, rep 1: 1.18
- nuclear/cytoplasmic p65 ratio, rep 2: 1.43
- low cell count flag: enough cells to score
- activity call: inactive
